A short description of this series: Uniformity of distribution of the active ingredients in the blend (10 samples, HPLC). The series is classed as physicochemical. The note with it: dry powder formulation of Example 2; mean value ± RSD. How it is done: The uniformity of distribution of the active ingredients was evaluated by withdrawing 10 samples from different parts of the blend and evaluated by HPLC

`C[N+]1(C)CCC(OC(=O)C(O)(c2ccccc2)C2CCCC2)C1` (stereo not shown) [GB, Glycopyrronium bromide]: the Uniformity of distribution was 101.4 (±1.6).

The values are drawn from patent US10772896B2, “Process for preparing a dry powder formulation comprising an anticholinergic, a corticosteroid and a beta-adrenergic” (CHIESI FARMACEUTICI S.P.A., priority 2015, dated 2020).
